Primary screen of a compound library

The chains behind the UniProt entries cited, without tags or fusion partners.
UniProt P9WFT3, whole entry: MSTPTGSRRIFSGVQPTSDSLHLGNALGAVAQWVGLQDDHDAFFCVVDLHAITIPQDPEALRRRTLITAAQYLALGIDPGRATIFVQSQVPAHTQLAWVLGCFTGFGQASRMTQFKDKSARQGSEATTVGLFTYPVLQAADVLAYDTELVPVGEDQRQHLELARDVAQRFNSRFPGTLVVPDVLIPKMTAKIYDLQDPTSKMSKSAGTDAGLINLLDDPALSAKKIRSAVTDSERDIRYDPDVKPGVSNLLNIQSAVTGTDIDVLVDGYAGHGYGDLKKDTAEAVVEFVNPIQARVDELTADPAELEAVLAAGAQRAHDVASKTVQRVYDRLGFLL
UniProt P9WNZ1, whole entry: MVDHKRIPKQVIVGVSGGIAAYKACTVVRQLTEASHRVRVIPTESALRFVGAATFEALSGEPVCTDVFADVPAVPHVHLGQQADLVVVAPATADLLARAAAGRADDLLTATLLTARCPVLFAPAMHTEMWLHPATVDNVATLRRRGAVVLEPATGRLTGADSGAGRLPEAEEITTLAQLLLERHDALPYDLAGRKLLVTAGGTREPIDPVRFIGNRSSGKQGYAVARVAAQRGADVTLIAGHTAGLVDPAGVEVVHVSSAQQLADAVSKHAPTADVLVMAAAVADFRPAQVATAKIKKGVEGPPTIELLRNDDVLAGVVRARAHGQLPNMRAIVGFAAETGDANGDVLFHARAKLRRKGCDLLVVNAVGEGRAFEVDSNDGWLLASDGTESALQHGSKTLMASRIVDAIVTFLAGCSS

Each number is a percent effect as filed.
The record does not define 0% and 100%; most values in the screen are far below 50% and negative numbers occur (in some assays of this library far below -100).
The compounds are a random part of those screened.
A dash means the value is not listed here; it may have been measured.

A: 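Enzyme assay of tryptophanyl-tRNA synthetase; the read-out is not stated. Target: Tryptophan-tRNA ligase, Mycobacterium tuberculosis (UniProt P9WFT3). Concentration: 10 µM. Direction is not recorded; retested compounds ran higher, which suggests that high means inhibition. Of about 65,000 compounds tested this way, about 64 (0.098%) reached 50% or more in at least one test.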
B: 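Enzyme assay of CoaBC with a phosphate dye (Biomol Green) read at 650 nm. Target: Coenzyme A biosynthesis protein CoaBC, Mycobacterium tuberculosis (UniProt P9WNZ1). Compounds at 30 µM. Direction is inferred from only a few compounds that gave an IC50; most scored high, so higher reads as stronger inhibition. Most strong results did not repeat in a second test. Size under these conditions: about 67,000 compounds, about 40 of them at 50% or above in at least one test.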

| structure | A | B |
|---|---|---|
| `CC(C)N(C)CCCNC(=O)c1cnc(-c2ccccc2)nc1` | 1.174% | -15.42% |
| `O=C(NC1CCN(C2CC2)C1)c1cn(-c2ccc(F)cc2)nn1` (stereo unspecified) | -3.17% | -3.949% |
| `O=C1NC2(CCN(C(=O)c3ccc(Cl)cc3)CC2)CC1c1ccccc1` (stereo unspecified) | -2.694% | 4% |
| `COCCN1C[C@@H]2[C@@H](OC)CCN(Cc3ccc(C)o3)[C@@H]2C1` | 0.9009% | -1.11% |
| `CCN(C(=O)c1cc(C)oc1C)C1CC1` | -3.883% | 1.901% |
| `Fc1cccc(-n2cccn2)c1NCc1nnc(C2CC2)o1` | 1.385% | 5.72% |
| `Cc1cc2[nH]c(CN3CCOC(c4ccc(F)cc4)C3)cc(=O)n2n1` (stereo unspecified) | 3.086% | -0.4902% |
| `COCCN1CCC2(COCc3cnc(N(C)C)nc32)C1` (stereo unspecified) | -3.433% | 3.34% |
| `CN(C)C(=O)CN1CCCC2(CCN(c3ccc(C#N)cn3)C2)C1` (stereo unspecified) | 10.1% | 18.53% |
| `O=C(c1[nH]nc2c1CCCC2)N1CCC(OCCN2CCCCC2)C1` (stereo unspecified) | -4.18% | 1.631% |
| `CCC1CN(CCNC(C)=O)CCN1CCOC` (stereo unspecified) | 5.243% | 4.389% |
| `COc1cc(C(=O)NCCc2ccc(Cl)cc2)on1` | -4.027% | -8.668% |
| `Cc1cc(=O)n(CC(=O)NCC2CCCO2)c(-c2ccccc2)n1` (stereo unspecified) | 2.294% | 4.937% |
| `COCCc1noc(CN2CCCC2c2noc(C3CC3)n2)n1` (stereo unspecified) | -2.647% | 4.061% |
| `COc1ccc(C(=O)N2CCC(C3CCN(c4ncccn4)CC3)C2)o1` (stereo unspecified) | 2.821% | -3.44% |
| `CC(C)[C@@H]1CN(c2ncc(F)cn2)C[C@H]1NS(=O)(=O)N(C)C` | -2.056% | 1.488% |
| `CCNc1ccnc(N2Cc3cnn(Cc4ccc(F)cc4)c3C2)n1` | -3.638% | 7.712% |
| `COCCN1CCC2(CC1)CC(N1CCOCC1)c1ccc(C)cc12` (stereo unspecified) | -8.422% | 2.217% |
| `O=C(NCCCn1cncn1)c1ccc(-c2ccccc2)[nH]c1=O` | -1.41% | -6.143% |
| `CCCNC(=O)CNc1cc(C(=O)N2CCSCC2)ccc1C` | 3.207% | 5.806% |
| `CC(O)c1cn(Cc2ccccc2)nn1` (stereo unspecified) | -5.718% | -8.055% |
| `O=C1CCC(c2ccccc2)=NN1CN1CCCCCC1` | -2.576% | -3.165% |
| `COc1ccc2c(ccn2CCCN)c1` | -2.644% | -1.816% |
| `CCS(=O)(=O)N1CC(c2nc(-c3ccncc3)no2)C1` | -1.341% | 2.886% |
| `c1cnc(NCc2nnn3c2CN(Cc2ccco2)CCC3)nc1` | 3.728% | 6.53% |
| `c1cnc(N2CCC3(CCN(CC4CCOC4)C3)CC2)nc1` (stereo unspecified) | -2.78% | -0.1287% |
| `COc1ccc(OC)c(C(C)Nc2ncnc3c2NC(=O)CN3)c1` (stereo unspecified) | 3.183% | 3.061% |
| `CCN1CCN(C2CCN(Cc3ncc(C(C)(C)C)o3)CC2)C1=O` | -2.111% | -2.308% |
| `COc1cccc(CNC(C)Cn2cccn2)c1OC` (stereo unspecified) | 1.519% | -0.4819% |
| `COc1ncc(CN(C)C2CCN(C(C)C)CC2)cn1` | 5.543% | 2.331% |
| `Cc1nn(CCC(=O)N2CCN(Cc3cnn(C)c3C)CC2)c(C)c1Br` | -1.359% | -1.928% |
| `COCc1ccccc1CNCc1c(C)nn(C)c1N(C)C` | -1.174% | 2.728% |
| `Cc1cc(C(C)NC(=O)Cn2nc(C)c3ccccc3c2=O)c(C)o1` (stereo unspecified) | 5.256% | 3.686% |
| `Cc1ccc(-c2noc(CN3CCc4nn(C)c(=O)cc4C3)n2)cc1` | -4.827% | -0.7833% |
| `COc1ccccc1OCC(=O)Nc1ncccc1C` | -2.734% | -1.603% |
| `CN(C)CCN1C(=O)CCC12CCN(C(=O)CC1CC1)CC2` | -0.995% | -1.412% |
| `CC1CCCCN1C(=O)CN1CCN(c2ccc3nncn3n2)CC1` (stereo unspecified) | 4.974% | 0.5181% |
| `O=C(Cc1csc(-c2ccsc2)n1)N1CCN(c2cnccn2)CC1` | 0.5112% | 2.672% |
| `Cc1cc(C[C@@H]2COC[C@H]2NCc2ccc(C(C)C)cc2)on1` | - | -0.1239% |
| `CCOC(=O)CCN(Cc1cccnc1)C(=O)c1cc(Cl)c[nH]1` | -0.9025% | -7.992% |
| `Cc1ccc(S(=O)(=O)NCCOc2ccc3nnc(C)n3n2)s1` | 4.157% | 2.926% |
| `Cc1nccn1Cc1cccc(CNC(=O)c2ccn(C)c(=O)c2)c1` | 1.008% | -1.944% |
| `Cc1ccc(OCC(C)NS(=O)(=O)N(C)C)cc1` (stereo unspecified) | -5.146% | 2.941% |
| `CS(=O)(=O)N1CCC2(CC1)CC(CC(=O)NC1CC1)c1ccccc12` (stereo unspecified) | -1.055% | 1.673% |
| `CNCc1cn(C[C@H]2CC3CCN2C[C@@H]3C(=O)Nc2ccccc2)nn1` (stereo partly specified) | -0.6777% | -10.16% |
| `Cc1nc(C)c2c(n1)CCN(Cc1nccn1C)CC2` | - | 3.342% |
| `CS(=O)(=O)NCc1cn2c(n1)CN(C(=O)c1ccc[nH]1)CC2` | 2.643% | 0.2591% |
| `CCOCC(=O)N1C[C@@H]2COC[C@H](c3nc(C)no3)[C@@H]2C1` | -4.69% | -2.692% |
| `O=C(c1ccc2c(c1)[nH]c(=O)n2C1CCCC1)N1CCSCC1` | 0.4472% | 4% |
| `CC(C)N(C)C(=O)C1CCC(=O)N(CCc2cccc(F)c2)C1` (stereo unspecified) | 0.8258% | -0.4969% |
| `Cc1cccc(NC2CCN(C(=O)Nc3ccc(F)cc3C)CC2)n1` | -7.592% | 14.04% |
| `CCc1noc(CCC(=O)N[C@@H]2CC[C@@H](n3ccnc3)[C@@H]2O)n1` | -0.6275% | 11.99% |
| `COc1ccc(F)c(-c2cc(NCCO)nc(N)n2)c1` | -8.208% | -7.265% |
| `Cc1cc(C(=O)N2CCC3(CC2)CC(c2cccnc2)C(=O)N3C)no1` (stereo unspecified) | 0.8835% | 3.752% |
| `Cc1cc(Nc2ccccn2)nc(C2CCCN(CCO)C2)n1` (stereo unspecified) | 1.795% | 9.324% |
| `CCOCCCn1c(NC(=O)c2cc(C)on2)nc2ccccc21` | -0.4351% | 4.54% |
| `CCc1nc2n(n1)CC(NCc1ccnc(-c3ccccc3)n1)CC2` (stereo unspecified) | 2.827% | 9.516% |
| `CC(C)CCC(=O)NCC(=O)N1CCCCCC1c1ccco1` (stereo unspecified) | -3.579% | 1.34% |
| `CCOCCn1nc(C)cc1C(=O)N1CCCC[C@H](N(C)C)C1` | 1.522% | 0.3619% |
| `CC(C)CCN1CCN(C(=O)c2ccc(=O)[nH]n2)CC1` | 10.86% | 3.215% |
| `CCN1CCN(C(=O)c2ccc3c(c2)NC(=O)CN3)[C@H]2CS(=O)(=O)C[C@H]21` | -3.846% | 0.8% |
| `CC(C)c1nc(CN(C)CC2CCN(CCO)CC2)no1` | -0.0774% | -39.45% |
| `COc1cccc(NC(=O)Nc2ccc3c(c2)CC(=O)N3)c1` | -0.8497% | -1.781% |
| `CC(C)CC(=O)N1CCN(Cc2csc(-c3ncccn3)n2)CC1` | -0.6517% | 6.198% |
| `Cc1nc(NC(=O)C(C)N(C)Cc2ccc3c(c2)OCO3)sc1C` (stereo unspecified) | -1.497% | 8.518% |
| `CC(=O)NCCNC(=O)CCn1c(C)cc2ccccc21` | 2.801% | 3.316% |
| `Cc1ncc2c(n1)CN(CCCOc1ccc(C#N)cc1)CC2` | 11.55% | 2.5% |
| `Cc1ncc2c(n1)CN(Cc1nc3ccccc3o1)CC2` | 4.307% | -0.1304% |
| `Cc1ccc(S(=O)(=O)Cc2noc([C@@H]3C[C@@H](O)CN3C(C)C)n2)cc1` | -1.28% | -8.804% |
| `CCC(Nc1nccc(C2CCCC2)n1)c1ccccn1` (stereo unspecified) | 1.444% | 12.62% |
| `Cc1ccc(CN2CCCC23Cc2ccccc2CNC3=O)cc1` (stereo unspecified) | 0.4322% | -6.316% |
| `Cc1nnc2n1CCN(C(C(=O)NC(C)C)c1ccccc1)C2` (stereo unspecified) | 10.96% | -0.5263% |
| `CN(C)C(=O)CN1C[C@@H]2OCCN(c3ncc(F)cn3)[C@@H]2C1` | -4.083% | -2.963% |
| `CCC(=O)NCC(c1ccc(SC)cc1)N1CCc2sccc2C1` (stereo unspecified) | -0.1696% | 1.976% |
| `CC(C)CN1CCN(C(=O)NCc2cccnc2-n2cccn2)CC1` | -0.9291% | -0.1304% |
| `CCc1nnc2n1CCN(C(=O)c1cnn(C)c1C1CC1)C2` | 15.79% | 12.94% |
| `CCc1cc(OC)c(OC)cc1C(=O)Nc1cccnc1` | 0.7168% | -5.855% |
| `CCOCc1nc2c(c(N3CC=CC3)n1)CCN(CC1CC1)CC2` | 5.877% | 4.536% |
| `COc1ccccc1CNC(C)c1ccc2[nH]c(=O)[nH]c2c1` (stereo unspecified) | -5.951% | -4.825% |
| `CC(C)Oc1ccc(CN2CCC(c3n[nH]c4ncccc34)CC2)cc1` | - | 0.2451% |
| `CNC(=O)c1csc(-c2ccoc2)n1` | 2.346% | 2.941% |

Measurements from “University of Dundee, Small-Polar-MMV Screening Library” (2021), ChEMBL document CHEMBL3988442.